The list shows a part of the results. Shown are side measurements of this screen, not its main read-out; they come without a call. Most of these compounds were active or inconclusive in the main read-out, so they are no random draw. The note in brackets gives the kind of curve behind each potency; many fits are weak.
Experiment: qHTS Assay for Modulators of Lamin A Splicing
Settings: HeLa LMNA splicing GFP/RFP minigene ratio, 48 h
Summary of the method: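 S3 HeLa cells stably expressing lamin A-EGFP splicing minigene plus DsRed2, 600 cells/well, 48 h compound exposure at 37C. Laser-scanning cytometry; analysed as GFP (500-530 nm)/RFP (575-640 nm) total intensity ratio; 0.5% DMSO vehicle.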

[1] = measured here: GFP splicing reporter channel
[2] = measured here: RFP viability control channel

Compound	AC50 [1]	AC50 [2]
CCCOc1cccc(-c2cc(C(=O)NNC(=S)NCC)c3ccccc3n2)c1	17.8 µM [rising, single point]	22.4 µM [rising, single point]
Cc1ccc(CN(CC2CCCO2)C(=O)CN2C(=O)C(C(C)C)Oc3ccccc32)o1 (configuration not stated)		15.8 µM [rising, single point]
CCOC(=O)N1CCN(C(=O)c2oc3ccc(S(=O)(=O)N4CCCCCC4)cc3c2C)CC1		14.1 µM [rising, single point]
COc1ccc(CN(C)Cc2nc3scc(-c4ccccc4)c3c(=O)[nH]2)cc1OC		17.8 µM [rising, single point]
Cc1[nH]c2ccccc2c1/C=N/Nc1nncn1N	0.00447 µM [rising, full curve, poor fit]	
Cc1ccccc1NC(=S)NC1(C)CCS(=O)(=O)C1 (configuration not stated)		6.31 µM [rising, partial curve, poor fit]
CCCCCCCCCCCCCCC[C@H](O)[C@H](N)CO	22.4 µM [falling, partial curve, poor fit]	12.6 µM [falling, partial curve]
CCC1=NN(C(=O)C(=O)Nc2ccccc2OC)C(O)(C(F)(F)F)C1 (configuration not stated)	10 µM [falling, single point]	0.0355 µM [falling, single point]
CCC(=O)Nc1nc(-c2ccc3c(c2)OCCO3)cs1		20 µM [rising, single point]
Cc1ccc(C)c(NC(=O)c2ccccc2NC(=O)C2CCCO2)c1 (configuration not stated)		0.01 µM [rising, full curve, poor fit]
CC(NC(=O)c1ccc(CS(=O)(=O)Cc2ccccc2F)o1)c1ccc2c(c1)OCCO2 (configuration not stated)		35.5 µM [rising, single point]
Fc1ccc(NC(=S)Nc2cccnc2)cc1Cl	0.0251 µM [falling, full curve, poor fit]	0.0224 µM [falling, full curve]
COc1ccc(NC(=O)CSc2c3c(nc4ccccc24)CCCC3)c(OC)c1	12.6 µM [falling, single point]	15.8 µM [falling, single point]
COc1ccc(-c2cc(=O)c3cc(OC)ccc3o2)cc1	2.82 µM [rising, full curve, poor fit]	2.82 µM [rising, full curve]
CCOC1CC(C)(C)NC(=S)N1 (configuration not stated)	14.1 µM [rising, single point]	
Cc1c(NS(=O)(=O)c2ccc(NCC3CCCO3)c([N+](=O)[O-])c2)c(=O)n(-c2ccccc2)n1C (configuration not stated)		0.0316 µM [falling, full curve, poor fit]

Shown with bars between the fields: part of the list above
Compound | AC50 [1] | AC50 [2]
Cc1[nH]c2ccccc2c1/C=N/Nc1nncn1N | 0.00447 µM [rising, full curve, poor fit] | 
CCC(=O)Nc1nc(-c2ccc3c(c2)OCCO3)cs1 |  | 20 µM [rising, single point]
